Source: article PMC9706582
No constants are given. Whether binding was seen depends on the method and setting. In cells and extracts the contact can be indirect. Some binding calls cover weakened binding; strength is not graded here. Values belong to the molecule of their own block, whether it stands above or below them.

Amino acid sequences for entries named in this document (tags omitted).
UniProt P37238: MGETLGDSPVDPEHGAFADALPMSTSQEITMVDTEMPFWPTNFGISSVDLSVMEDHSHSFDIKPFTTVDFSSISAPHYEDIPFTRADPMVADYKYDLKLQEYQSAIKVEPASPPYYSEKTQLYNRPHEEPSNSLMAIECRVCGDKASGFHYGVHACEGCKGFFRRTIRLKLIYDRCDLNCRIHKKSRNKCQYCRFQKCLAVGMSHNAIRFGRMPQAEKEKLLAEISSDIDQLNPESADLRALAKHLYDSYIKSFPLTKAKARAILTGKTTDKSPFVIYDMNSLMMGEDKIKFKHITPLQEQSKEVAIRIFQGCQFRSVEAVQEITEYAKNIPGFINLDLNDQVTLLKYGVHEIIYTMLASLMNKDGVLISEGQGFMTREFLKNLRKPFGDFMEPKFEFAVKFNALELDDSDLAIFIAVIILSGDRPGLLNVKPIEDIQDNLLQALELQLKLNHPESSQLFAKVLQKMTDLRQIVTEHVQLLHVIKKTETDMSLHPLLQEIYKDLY
UniProt Q06831: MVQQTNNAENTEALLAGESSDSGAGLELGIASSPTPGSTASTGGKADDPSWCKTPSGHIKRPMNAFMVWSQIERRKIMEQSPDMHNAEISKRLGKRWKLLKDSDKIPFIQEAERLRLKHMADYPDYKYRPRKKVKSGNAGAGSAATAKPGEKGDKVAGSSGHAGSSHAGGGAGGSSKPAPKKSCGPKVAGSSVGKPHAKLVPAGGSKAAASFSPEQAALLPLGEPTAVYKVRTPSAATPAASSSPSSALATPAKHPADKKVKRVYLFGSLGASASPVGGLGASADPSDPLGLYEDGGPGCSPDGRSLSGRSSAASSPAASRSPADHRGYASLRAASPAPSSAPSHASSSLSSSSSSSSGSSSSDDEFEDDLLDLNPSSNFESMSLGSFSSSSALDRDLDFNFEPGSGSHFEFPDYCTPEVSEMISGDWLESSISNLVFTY
UniProt A2A935: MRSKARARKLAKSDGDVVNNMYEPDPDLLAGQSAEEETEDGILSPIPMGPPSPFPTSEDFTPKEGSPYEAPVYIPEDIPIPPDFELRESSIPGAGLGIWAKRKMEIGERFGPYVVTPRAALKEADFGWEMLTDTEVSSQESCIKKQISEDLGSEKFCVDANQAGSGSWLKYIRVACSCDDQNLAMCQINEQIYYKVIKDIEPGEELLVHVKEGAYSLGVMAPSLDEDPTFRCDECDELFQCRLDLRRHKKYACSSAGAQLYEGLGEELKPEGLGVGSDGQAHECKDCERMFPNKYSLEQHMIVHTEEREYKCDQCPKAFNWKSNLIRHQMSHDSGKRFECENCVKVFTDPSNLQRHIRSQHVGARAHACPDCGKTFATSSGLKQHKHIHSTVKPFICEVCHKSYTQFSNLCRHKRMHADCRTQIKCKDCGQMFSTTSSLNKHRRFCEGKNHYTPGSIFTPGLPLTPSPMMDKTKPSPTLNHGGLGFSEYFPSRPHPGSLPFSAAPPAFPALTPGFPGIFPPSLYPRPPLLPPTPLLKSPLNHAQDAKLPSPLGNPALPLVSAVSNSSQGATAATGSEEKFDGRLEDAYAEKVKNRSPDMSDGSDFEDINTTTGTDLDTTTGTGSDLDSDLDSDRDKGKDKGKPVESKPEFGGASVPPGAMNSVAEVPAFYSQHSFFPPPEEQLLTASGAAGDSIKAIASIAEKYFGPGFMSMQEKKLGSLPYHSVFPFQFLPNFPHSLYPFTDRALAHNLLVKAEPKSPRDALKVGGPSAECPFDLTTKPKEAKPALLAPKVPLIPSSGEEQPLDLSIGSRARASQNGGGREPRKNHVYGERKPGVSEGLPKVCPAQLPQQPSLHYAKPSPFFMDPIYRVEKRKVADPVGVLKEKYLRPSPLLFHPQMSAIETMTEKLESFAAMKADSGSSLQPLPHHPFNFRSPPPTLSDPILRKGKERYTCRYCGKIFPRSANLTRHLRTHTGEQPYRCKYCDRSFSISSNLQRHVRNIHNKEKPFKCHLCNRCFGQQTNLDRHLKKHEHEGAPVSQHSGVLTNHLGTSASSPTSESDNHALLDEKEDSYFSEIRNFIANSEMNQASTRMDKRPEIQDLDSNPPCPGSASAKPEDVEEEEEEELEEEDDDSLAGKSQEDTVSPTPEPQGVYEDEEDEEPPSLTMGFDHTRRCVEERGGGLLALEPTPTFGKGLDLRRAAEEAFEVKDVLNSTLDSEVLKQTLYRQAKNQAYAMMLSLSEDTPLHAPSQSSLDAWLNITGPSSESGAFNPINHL

Legend:
[1] = molecular target: HA-tagged PPARγ2 (peroxisome proliferator-activated receptor gamma 2) (UniProt P37238); test: co-IP; HEK293T cells transfected (PEI) with FLAG-tagged and HA-tagged proteins; lysed in IP buffer (20 mM Tris pH 7.5, 150 mM NaCl, 1 mM EDTA, 1 mM EGTA, 2.5 mM sodium pyrophosphate, 1% Triton); anti-Flag or anti-HA affinity gel, Western blot; in Figure 6C with or without co-expressed SOX4 and with or without 1 μM rosiglitazone for 4 hr; in Figure S10 with overexpressed SOX4
[2] = molecular target: endogenous PPARγ (peroxisome proliferator-activated receptor gamma) (mouse (endogenous in beige adipocytes from mouse iWAT SVF cells and in mouse iWAT)) (UniProt P37238); test: co-IP; Endogenous proteins: lysates of beige adipocytes differentiated from immortalized SVF cells, or of mouse iWAT, incubated overnight with anti-PPARγ antibody cross-linked to protein A/G magnetic beads; IgG control; Western blot. Figure 6E: with Vector or Sox4-expression adenovirus. Figure 6F: iWAT of cold-exposed control and SOX4 AKO mice
[3] = molecular target: FLAG-tagged SOX4 (transcription factor SOX-4) (UniProt Q06831); test: co-IP; HEK293T cells transfected (PEI) with FLAG-tagged and HA-tagged proteins; lysed in IP buffer (20 mM Tris pH 7.5, 150 mM NaCl, 1 mM EDTA, 1 mM EGTA, 2.5 mM sodium pyrophosphate, 1% Triton); anti-Flag or anti-HA affinity gel, Western blot; in Figure 6C with or without co-expressed SOX4 and with or without 1 μM rosiglitazone for 4 hr; in Figure S10 with overexpressed SOX4
[4] = molecular target: PPARγ2 as used in the Co-IP with PGC-1α (Figure S10) (UniProt P37238); test: as above

binding [1]: binds
Molecule: FLAG-tagged SOX4 (transcription factor SOX-4) (from UniProt Q06831 1-440)

Molecule: endogenous SOX4 (transcription factor SOX-4) (from UniProt Q06831 1-440)
binding [2]: binds

binding [3]: binds
Molecule: HA-PRDM16 (histone-lysine N-methyltransferase PRDM16) (from UniProt A2A935 1-1275)

binding [4]: binds
B1: PGC-1α (PPARγ coactivator-1α) (protein, UniProt O70343 1-797)
chain: MAWDMCSQDSVWSDIECAALVGEDQPLCPDLPELDLSELDVNDLDTDSFLGGLKWCSDQSEIISNQYNNEPANIFEKIDEENEANLLAVLTETLDSLPVDEDGLPSFDALTDGAVTTDNEASPSSMPDGTPPPQEAEEPSLLKKLLLAPANTQLSYNECSGLSTQNHAANHTHRIRTNPAIVKTENSWSNKAKSICQQQKPQRRPCSELLKYLTTNDDPPHTKPTENRNSSRDKCASKKKSHTQPQSQHAQAKPTTLSLPLTPESPNDPKGSPFENKTIERTLSVELSGTAGLTPPTTPPHKANQDNPFKASPKLKPSCKTVVPPPTKRARYSECSGTQGSHSTKKGPEQSELYAQLSKSSGLSRGHEERKTKRPSLRLFGDHDYCQSLNSKTDILINISQELQDSRQLDFKDASCDWQGHICSSTDSGQCYLRETLEASKQVSPCSTRKQLQDQEIRAELNKHFGHPCQAVFDDKSDKTSELRDGDFSNEQFSKLPVFINSGLAMDGLFDDSEDESDKLSYPWDGTQPYSLFDVSPSCSSFNSPCRDSVSPPKSLFSQRPQRMRSRSRSFSRHRSCSRSPYSRSRSRSPGSRSSSRSCYYYESSHYRHRTHRNSPLYVRSRSRSPYSRRPRYDSYEAYEHERLKRDEYRKEHEKRESERAKQRERQKQKAIEERRVIYVGKIRPDTTRTELRDRFEVFGEIEECTVNLRDDGDSYGFITYRYTCDAFAALENGYTLRRSNETDFELYFCGRKQFFKSNYADLDTNSDDFDPASTKSKYDSLDFDSLLKEAQRSLRR
